Experiments:
[1] = PFCA guest response across the nine PFCAs (UV-Vis, RGB, one-way ANOVA variance)
Description: (§1) Experiments were performed at concentrations that could be monitored by the naked eye for practical sensing of PFAS in the field. Complexes of hosts (9), (11) and (12) were formed with the nine different perfluorocarboxylic acids (PFCAs) shown in Table 2 above and the colours of each host−PFCA complex were photographed in a lightbox and analysed using ImageJ software RGB analysis. Pixels of the solution were chosen at random to provide an RGB value. Multiple RGB values were recorded for each host−PFCA solution, and an average colour can be produced. From those values an RGB parameter was used to give a response value for modelling (Tahir et al., 2016).
(§2) After preliminary screenings, UV-Vis spectra were collected before and after the addition of 1 molar equivalent of each PFCA for each host, and the degree of complexation was noted by shifts in the Soret bands and formation of a peak at ca. 650 nm. To eliminate dilution effects, PFCA guest solutions were prepared in the equivalent concentration of host. If there was a notable host−guest interaction for a particular PFCA, the host−guest binding was investigated with more rigorous UV-Vis experiments, binding studies, and further colour analyses. Throughout these investigations, PFOA was considered the “average” PFCA both because of its position in the range of PFCA sizes and because its prevalence is often an indication of broader PFAS contamination. In any experiment where binding was further investigated for a particular PFCA, it was typically replicated with PFOA for comparison.
One-way factorial ANOVA was used to examine the dependence (or independence) of two or more factors affecting the dependent variable concurrently, in the present case the change in absorption, or the change in RGB response across the tested PFCAs, or across the different hosts. This analysis was used to determine the variance in the responses of each host across the different PFCAs. […] Sensor (12) had the lowest deviation and variance across the nine PFCAS; although its colour change was not the most intense, it gives a similar response across the range of PFCAs.

[2] = PFCA guest response screening (RGB analysis, UV-Vis); conditions: ImageJ
Description: A Puluz® 20 cm portable light tent with moderate and dispersed white LED lighting was used to photograph samples using an iPhone 6S plus camera on a fixed tripod. The automatic flash settings were disabled so there was no reflective interference on the sample vials. Samples that were being directly compared were photographed together to ensure lighting conditions and settings were consistent. The photographs were analysed using ImageJ software according to the procedure of Gallagher, 2014b. Multiple RGB values were chosen from areas of each sample at random to provide an “average” RGB value (Menesatti et al., 2012; Gallagher, 2014a; Phuangsaijai et al., 2021). Those RGB values were used to produce an artificial colour tile for visual comparison, or parameterized for modelling.
To quantify a colour difference, RGB values were transformed within the CIELab colour space. The difference, expressed as ΔE, was determined by measuring the relative distance between two colours. The numeric ΔE value can be used to predict how the two colours are perceived by a standard observer; a ΔE>2 is considered the minimum value to achieve a “just noticeable difference” (JND) (Table 1), which is the smallest difference required for an untrained observer to be able to determine two colours as being different (Castillo et al., 2021).
as §1, §2

[3] = Colorimetric matching of mixed PFCA samples, low concentration
Description: In the “low” PFCA concentration experiment, the RGB response values had the greatest rate of change from 0-40 ppb PFOA and appeared to level out between 40-80 ppb PFOA. In that instance, the regression was fit for a host : guest ratio of 0-0.8. To probe the sensor's response to a mixture of PFCAs, samples containing combinations of PFHxA, PFHpA, and PFDA in dichloromethane (7-28 ppb) were prepared and the RGB responses were collected. The PFCA concentrations for the samples were predicted using the PFOA regression (y=0.0591 ln(x)+0.037, R^2=0.9771).
The lowest concentration PFCA sample (7 ppb) was predicted to be ca. 11 ppb (58% error) from the PFOA regression, whilst the higher concentration mixed PFCA samples (14.1 and 28.8 ppb) were predicted to be ca. 16 and 23 ppb (17 and 18% error respectively). Thus, host (12) may be coupled with a phone camera to estimate mixed PFCA concentrations from RGB data with <20% error, or used visually for threshold detection of total PFCA concentrations above 10 ppb.

[4] = host + PFDoDA in dichloromethane

Row | Structure (SMILES) | variance (σ^2) in the RGB values across the range of PFCAs ([1]; one-way ANOVA) | Av(Blue) ([2]; host + PFDA in dichloromethane) | Av(Green) ([2]; host + PFDA in dichloromethane) | Av(RGB) ([2]; host + PFDA in dichloromethane) | Av(Red) ([2]; host + PFDA in dichloromethane) | G − R ([2]; host + PFDA in dichloromethane) | Av(Blue) [2, 4] | Av(Green) [2, 4] | Av(RGB) [2, 4] | Av(Red) [2, 4] | G − R [2, 4] | Av(Blue) ([2]; host + PFOA in dichloromethane) | Av(Green) ([2]; host + PFOA in dichloromethane) | Av(RGB) ([2]; host + PFOA in dichloromethane) | Av(Red) ([2]; host + PFOA in dichloromethane) | G − R ([2]; host + PFOA in dichloromethane) | also measured
1 | O=C(Nc1ccccc1-c1c2nc(c(-c3ccccc3NC(=O)C(F)(F)C(F)(F)C(F)(F)C(F)(F)C(F)(F)C(F)(F)C(F)(F)F)c3ccc([nH]3)c(-c3ccccc3NC(=O)C(F)(F)C(F)(F)C(F)(F)C(F)(F)C(F)(F)C(F)(F)C(F)(F)F)c3nc(c(-c4ccccc4NC(=O)C(F)(F)C(F)(F)C(F)(F)C(F)(F)C(F)(F)C(F)(F)C(F)(F)F)c4ccc1[nH]4)C=C3)C=C2)C(F)(F)C(F)(F)C(F)(F)C(F)(F)C(F)(F)C(F)(F)C(F)(F)F [host (9), α,α,α,α-5,10,15,20-tetrakis(2-(pentadecafluorooctanoylamino)phenyl)porphyrin] | 110 | 82 | 174 | 139 | 160 | 14 | 106 | 162 | 144 | 165 | −3 | 86 | 175 | 141 | 163 | 12 | 
2 | O=C(Nc1ccccc1-c1c2nc(c(-c3ccccc3NC(=O)C(F)(F)C(F)(F)C(F)(F)F)c3ccc([nH]3)c(-c3ccccc3NC(=O)C(F)(F)C(F)(F)C(F)(F)F)c3nc(c(-c4ccccc4NC(=O)C(F)(F)C(F)(F)C(F)(F)F)c4ccc1[nH]4)C=C3)C=C2)C(F)(F)C(F)(F)C(F)(F)F [host (11), α,α,α,α-5,10,15,20-tetra(2-(heptafluorobutanoylamino)phenyl) porphyrin] | 135 | 102 | 165 | 145 | 167 | −2 | 101 | 165 | 145 | 170 | −5 | 82 | 172 | 138 | 161 | 11 | Soret band of the host−PFCA complex ([1]; host alone ca. 416 nm, dichloromethane): ca. 444 nm
3 | O=C(Nc1ccccc1-c1c2nc(c(-c3ccccc3NC(=O)C(F)(F)C(F)(F)C(F)(F)C(F)(F)C(F)(F)C(F)(F)C(F)(F)C(F)(F)C(F)(F)C(F)(F)C(F)(F)F)c3ccc([nH]3)c(-c3ccccc3NC(=O)C(F)(F)C(F)(F)C(F)(F)C(F)(F)C(F)(F)C(F)(F)C(F)(F)C(F)(F)C(F)(F)C(F)(F)C(F)(F)F)c3nc(c(-c4ccccc4NC(=O)C(F)(F)C(F)(F)C(F)(F)C(F)(F)C(F)(F)C(F)(F)C(F)(F)C(F)(F)C(F)(F)C(F)(F)C(F)(F)F)c4ccc1[nH]4)C=C3)C=C2)C(F)(F)C(F)(F)C(F)(F)C(F)(F)C(F)(F)C(F)(F)C(F)(F)C(F)(F)C(F)(F)C(F)(F)C(F)(F)F [host (12), α,α,α,α-5,10,15,20-tetrakis(2-(tricosafluorododecanoylamino)phenyl) porphyrin] | 15 | 101 | 174 | 148 | 170 | 3 | 111 | 177 | 157 | 181 | −4 | 104 | 176 | 150 | 170 | 6 | variance (σ^2) of absorbance at 650 nm across PFCA chain lengths ([1]; one-way ANOVA): 9.7×10^−5; variance (σ^2) of green value from ImageJ analysis ([1]; one-way ANOVA): 14; prediction error ([3]; 7 ppb PFCA sample): 58%; prediction error ([3]; 14.1 ppb mixed PFCA sample): 17%; prediction error ([3]; 28.8 ppb mixed PFCA sample): 18%; error of mixed PFCA concentration estimated from RGB data ([3]; coupled with a phone camera): < 20%

Reference: patent US20240166658A1, “PORPHYRIN DERIVATIVES AND USES THEREOF” (University of Tasmania, priority 2021, published 2024)
